Reference: PubChem BioAssay AID652243 (Drosophila RNAi Screening Center, 2013)
The deposit covers about 24,000 reagents; shown is an unselected part of those with a known target gene and a result. In the full data, 246 (1%) are marked active. 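Plates not normalised; calls are printed but the firefly/Renilla ratio behind them is not deposited; fold cut for lowering reported inconsistently.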 Raw values vary from plate to plate and are shown uncorrected. A plus sign joins genes that one reagent is predicted to hit. Not stated in the record: the amount of reagent.

Assay: 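Fly regulators of androgen-dependent reporter output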 (primary screen)
System: Drosophila S2R+ cells
Knock-down reagent: long dsRNA against Drosophila genes
Time to read-out: 72 h (48 h, then 24 h hormone)
Treatment: synthetic androgen R1881 at 10 nM for 24 h
Measurement: 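Per-well raw luminescence of the androgen-driven firefly reporter and of the Renilla control, two replicates each, without normalisation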
Scale: firefly reporter light: higher = more light from androgen-responsive reporter; Renilla control light: higher = more constitutive control signal (cell number, transfection)
Active means: 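Across duplicate plates, a knock-down whose log firefly/Renilla ratio shifted a set fold down or up from the GFP/LacZ control mean was a hit; the downward cut appears as both 1.5 and 3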
Meaning of the calls: active = hit: reporter lowered or raised; inactive = no hit

| gene | amplicon | firefly reporter light, replicate 1 | firefly reporter light, replicate 2 | Renilla control light, replicate 1 | Renilla control light, replicate 2 | Call |
| --- | --- | --- | --- | --- | --- | --- |
| CG13295 (GeneID 38692) | DRSC09969 | 88906 | 1.73e5 | 1.13e6 | 1.75e6 | inactive |
| org-1 (GeneID 31778) | DRSC22974 | 9.75e5 | 1.06e6 | 1.01e6 | 1.01e6 | inactive |
| org-1 (GeneID 31778) | DRSC25771 | 2.62e5 | 3.62e5 | 8.43e5 | 7.06e5 | inactive |
| kat-60L1 (GeneID 40715) | DRSC12184 | 57669 | 91827 | 4.14e5 | 3.56e5 | inactive |
| kat-60L1 (GeneID 40715) | DRSC25414 | 1.01e6 | 7.24e5 | 8.33e5 | 8.24e5 | inactive |
| Tpr2 (GeneID 34984) | DRSC03461 | 8.10e5 | 9.45e5 | 1.36e6 | 2.11e6 | inactive |
| CG6415 (GeneID 34474) | DRSC02954 | 1.23e6 | 1.31e6 | 2.20e6 | 1.91e6 | inactive |
| CG6415 (GeneID 34474) | DRSC29833 | 4.96e5 | 4.83e5 | 1.21e6 | 1.24e6 | inactive |
| Apc2 (GeneID 42871) | DRSC14115 | 37140 | 60256 | 3.53e5 | 3.46e5 | inactive |
| CG15528 (GeneID 43575) | DRSC15065 | 1.96e5 | 1.65e5 | 2.73e6 | 3.34e6 | inactive |
| CG4374 (GeneID 42767) | DRSC15570 | 1.99e5 | 2.54e5 | 2.88e6 | 2.81e6 | inactive |
| CG4374 (GeneID 42767) | DRSC27482 | 5.46e5 | 5.60e5 | 6.32e5 | 6.90e5 | inactive |
| Arms (GeneID 37433) | DRSC03856 | 6.77e5 | 6.94e5 | 1.67e6 | 1.27e6 | inactive |
| Arms (GeneID 37433) | DRSC03857 | 1.39e5 | 1.73e5 | 6.13e5 | 4.41e5 | inactive |
| Arms (GeneID 37433) | DRSC04052 | 1.26e6 | 1.05e6 | 3.00e6 | 2.84e6 | inactive |
| Arms (GeneID 37433) | DRSC04256 | 1.77e5 | 2.07e5 | 8.45e5 | 5.72e5 | inactive |
| Arms (GeneID 37433) | DRSC28371 | 3.76e5 | 7.00e5 | 9.59e5 | 1.54e6 | inactive |
| CG8641 (GeneID 38771) | DRSC11028 | 1.85e5 | 2.11e5 | 2.16e6 | 2.91e6 | inactive |
| Apoltp (GeneID 34283) | DRSC02508 | 7.37e5 | 8.11e5 | 1.21e6 | 1.14e6 | inactive |
| Fas2 (GeneID 31364) | DRSC17308 | 7.07e5 | 6.46e5 | 1.81e6 | 1.40e6 | inactive |
| Fas2 (GeneID 31364) | DRSC17309 | 7.95e5 | 8.46e5 | 1.92e6 | 1.69e6 | inactive |
| Fas2 (GeneID 31364) | DRSC18664 | 1.20e5 | 1.05e5 | 1.02e6 | 7.37e5 | inactive |
| CG15084 (GeneID 37178) | DRSC06515 | 6.09e5 | 9.67e5 | 2.14e6 | 2.32e6 | inactive |
| CG15084 (GeneID 37178) | DRSC21403 | 7.97e5 | 8.76e5 | 1.75e6 | 1.80e6 | inactive |
| CG15084 (GeneID 37178) | DRSC27128 | 2.91e5 | 2.48e5 | 6.40e5 | 7.19e5 | inactive |
| CG17801 (GeneID 42144) | DRSC15273 | 43109 | 50425 | 6.71e5 | 7.23e5 | inactive |
| Drep3 (GeneID 36292) | DRSC07529 | 4.27e5 | 4.13e5 | 1.68e6 | 2.73e6 | inactive |
| Drep3 (GeneID 36292) | DRSC22344 | 9.42e5 | 8.55e5 | 1.33e6 | 1.15e6 | inactive |
| ProtA (GeneID 34866) | DRSC03372 | 1.35e5 | 1.81e5 | 1.75e6 | 2.11e6 | inactive |
| tplus3b + tplus3a | DRSC26400 | 3.10e5 | 2.36e5 | 6.13e5 | 5.81e5 | inactive |
| CG18190 (GeneID 37179) | DRSC06714 | 1.34e5 | 1.92e5 | 2.23e6 | 1.69e6 | inactive |
| CG18190 (GeneID 37179) | DRSC27920 | 5.32e5 | 4.81e5 | 1.75e6 | 1.68e6 | inactive |
| CG31642 (GeneID 326149) | DRSC02919 | 4.57e5 | 7.20e5 | 1.03e6 | 1.19e6 | inactive |
| CG31642 (GeneID 326149) | DRSC26391 | 2.19e5 | 2.17e5 | 6.78e5 | 5.54e5 | inactive |
| CG12320 (GeneID 42189) | DRSC14498 | 95232 | 1.54e5 | 1.16e6 | 1.60e6 | inactive |
| CG31097 (GeneID 43058) | DRSC14666 | 2.31e5 | 2.24e5 | 2.14e6 | 2.29e6 | inactive |
| CG31097 (GeneID 43058) | DRSC39311 | – | – | – | – | inactive |
| MtnD (GeneID 326270) | DRSC22733 | 6.49e5 | 7.75e5 | 1.02e6 | 1.27e6 | inactive |
| CG30484 (GeneID 36534) | DRSC05457 | 1.35e5 | 1.50e5 | 2.67e5 | 4.11e5 | inactive |
| CG40470 (GeneID 3355093) | DRSC37732 | 6.31e5 | 7.09e5 | 1.65e6 | 1.98e6 | inactive |
| p38c (GeneID 2768679) | DRSC22939 | 4.50e5 | 1.04e6 | 9.97e5 | 2.41e6 | inactive |
| p38c (GeneID 2768679) | DRSC39293 | – | – | – | – | inactive |
| eIF4E1 (GeneID 45525) | DRSC11342 | 8.45e5 | 1.05e6 | 1.08e6 | 1.07e6 | inactive |
| eIF4E1 (GeneID 45525) | DRSC23583 | 5.76e5 | 3.94e5 | 3.88e5 | 3.02e5 | inactive |
| l(3)07882 (GeneID 46201) | DRSC15882 | 84503 | 82729 | 4.95e5 | 5.64e5 | inactive |
| CG15337 (GeneID 31748) | DRSC18020 | 2.29e5 | 3.43e5 | 1.55e6 | 1.82e6 | inactive |
| CG15337 (GeneID 31748) | DRSC22778 | 3.85e5 | 4.74e5 | 1.21e6 | 1.37e6 | inactive |
| CG4186 (GeneID 50107) | DRSC11753 | 2.78e5 | 2.39e5 | 2.17e6 | 2.11e6 | inactive |
| B4 (GeneID 34767) | DRSC01868 | 8.73e5 | 8.01e5 | 1.96e6 | 2.02e6 | inactive |
| B4 (GeneID 34767) | DRSC03175 | 3.07e5 | 3.36e5 | 1.57e6 | 2.11e6 | inactive |
| CG31743 + CG34313 | DRSC02781 | 6.97e5 | 6.63e5 | 2.04e6 | 2.49e6 | inactive |
| CG31743 + CG34313 | DRSC02782 | 1.54e5 | 1.60e5 | 1.35e6 | 1.55e6 | inactive |
| CG14441 (GeneID 31611) | DRSC24967 | 6.93e5 | 7.00e5 | 9.29e5 | 1.20e6 | inactive |
| Tat (GeneID 32381) | DRSC19602 | 2.50e5 | 2.10e5 | 3.44e6 | 2.11e6 | inactive |
| rpr (GeneID 40015) | DRSC11390 | 2.65e5 | 2.39e5 | 2.15e6 | 2.43e6 | inactive |
| kl-5 (retired record) (GeneID 3355175) | DRSC20707 | 2.22e5 | 2.28e5 | 5.92e5 | 5.18e5 | inactive |
| kl-5 (retired record) (GeneID 3355175) | DRSC20736 | 5.92e5 | 5.76e5 | 4.78e5 | 3.88e5 | inactive |
| kl-5 (retired record) (GeneID 3355175) | DRSC20773 | 1.11e6 | 7.34e5 | 1.19e6 | 7.80e5 | inactive |
| kl-5 (retired record) (GeneID 3355175) | DRSC21161 | 6.50e5 | 5.11e5 | 6.56e5 | 7.36e5 | inactive |

An excerpt taken from the entries so far, as a working copy:
| gene | amplicon | firefly reporter light, replicate 1 | firefly reporter light, replicate 2 | Renilla control light, replicate 1 | Renilla control light, replicate 2 | Call |
| --- | --- | --- | --- | --- | --- | --- |
| CG31743 + CG34313 | DRSC02781 | 6.97e5 | 6.63e5 | 2.04e6 | 2.49e6 | inactive |
| CG31743 + CG34313 | DRSC02782 | 1.54e5 | 1.60e5 | 1.35e6 | 1.55e6 | inactive |
| CG14441 (GeneID 31611) | DRSC24967 | 6.93e5 | 7.00e5 | 9.29e5 | 1.20e6 | inactive |
| Tat (GeneID 32381) | DRSC19602 | 2.50e5 | 2.10e5 | 3.44e6 | 2.11e6 | inactive |
| rpr (GeneID 40015) | DRSC11390 | 2.65e5 | 2.39e5 | 2.15e6 | 2.43e6 | inactive |
| kl-5 (retired record) (GeneID 3355175) | DRSC20707 | 2.22e5 | 2.28e5 | 5.92e5 | 5.18e5 | inactive |
| kl-5 (retired record) (GeneID 3355175) | DRSC20736 | 5.92e5 | 5.76e5 | 4.78e5 | 3.88e5 | inactive |
| kl-5 (retired record) (GeneID 3355175) | DRSC20773 | 1.11e6 | 7.34e5 | 1.19e6 | 7.80e5 | inactive |
